We go through 40 compounds from PubChem BioAssay AID493014 (National Center for Advancing Translational Sciences (NCATS), 2011).

This assay is described as follows: qHTS Assay to Find Inhibitors of Chronic Active B-Cell Receptor Signaling. The settings on record: ABC-DLBCL IkBa-CBG/CBR reporter, luminescence ratio (green luciferase fused to IkBa over red control in TMD8 lymphoma cells), 4 h. The method, boiled down:
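TMD8 human ABC-DLBCL cells with doxycycline-inducible IκBα–green luciferase fusion and unfused red luciferase, in 0.5% FBS medium; compounds up to 46 uM, 4 h at 37C. Green/red luminescence ratio, filter-overlap corrected, fitted to concentration-response curves.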

Where [1] appears, read: measured here: CBR red luminescence, cell number.
The mark [2] stands for this setting: measured here: IkBa-CBG green luminescence.

Structures are written as SMILES. The list shows a part of the results. Shown are side measurements of this screen, not its main read-out; they come without a call. Compounds called inactive in the main read-out are mostly missing here. Potencies come from curve fits of mixed quality, noted in brackets.

On to `Cc1cc(/C=C(\C#N)c2nc3ccccc3[nH]2)c(C)n1C`, for which, under setting [1], the half-maximal activity concentration (AC50) was 0.13 µM [rising, full curve, poor fit].
Regarding `CC(=O)/C(=C/Nc1ccc(Oc2ccccc2)cc1)c1ccccc1`, the half-maximal activity concentration (AC50) runs as follows: under setting [1], 29.1 µM [rising, single point]; under setting [2], 25.9 µM [falling, partial curve, poor fit].
For the compound `Cc1cccc(S(=O)(=O)N2CN(Cc3ccco3)c3nc4ccccc4nc32)c1`, the AC50 under setting [1] is 22.4 µM [falling, partial curve, poor fit].
`O=C(NCCC1=CCCCC1)C(=O)NCC1OCCCN1S(=O)(=O)c1cc(F)ccc1F` (stereo not drawn): the AC50 under setting [1] is 5.01 µM [rising, single point].
Consider `COc1cc(/C=C(/C#N)c2ccc(F)cc2)ccc1OCc1ccc(C(=O)O)o1`, for which the AC50 under setting [1] is 16.4 µM [falling, single point].
Still for that read-out and setting: in the case of `Cc1ccc(-c2noc(CN(C(=O)Cc3ccccc3)C(C)C)n2)cc1` it was 16.4 µM [rising, single point].
Still for that read-out and setting: in the case of `Brc1cc2c(cc1-c1nc3ccccc3s1)OCO2` it was 35.5 µM [rising, single point].
As for `Cc1[nH]nc2c1C(c1ccoc1)C(C#N)=C(N)O2` (stereo not drawn), under setting [1], the half-maximal activity concentration (AC50) was 35.5 µM [falling, single point].
With `NS(=O)(=O)c1cc(C(=O)OCC(=O)N2CCc3ccccc3C2)ccc1Cl`, the concentration at half-maximal activity (AC50) was 14.6 µM [rising, partial curve] under setting [1] and 16.4 µM [falling, partial curve, poor fit] under setting [2].
For the compound `CSc1cccc(NC(=O)CC2Oc3ccccc3NC2=O)c1` (stereo not drawn), the AC50 under setting [1] was 12.6 µM [rising, partial curve, poor fit].
On the same count and under the same terms, in the case of `Cc1cc(C)cc(N(C(=O)C2CCCC2)C2C=CS(=O)(=O)C2)c1` (stereo not drawn) it was 22.4 µM [falling, single point]; in that of `CCCNc1nc(C)cc(-c2cc(-c3ccccc3)on2)n1`, 0.891 µM [rising, full curve, poor fit].
Same read-out and setting: with `O=C(O)c1cccc(Nc2nc(-c3cc4ccccc4oc3=O)cs2)c1` the figure was 6.31 µM [falling, partial curve]; with `Cc1cccc(-c2cc3nc(-c4ccccc4)cc(=O)n3[nH]2)c1`, 2 µM [falling, full curve]; with `Cc1ccc(C(C(=O)NC(C)(C)C)N(C(=O)c2csnn2)c2cccc(F)c2)o1` (stereo not drawn), 0.326 µM [falling, full curve, poor fit].
Still for that read-out and setting: with `COc1ccc(Cl)cc1/C=N/NC(=O)c1c(-c2ccccc2)noc1C` the figure was 14.1 µM [falling, single point]; with `COc1ccc2c(c1)CCc1c(C(=O)N3CCOCC3)noc1-2`, 1.64 µM [rising, full curve, poor fit]; with `CCCOc1cccc(C(=O)Nc2cccc(-c3nc4ncccc4o3)c2C)c1`, 5.01 µM [falling, partial curve, poor fit].
Regarding `O=C(Nc1ccccc1)Nc1cccc(Cl)c1Cl`, the AC50 under setting [1] is 20.6 µM [falling, single point].
Still for that read-out and setting: in the case of `CCOC(=O)C1CCCN(C(=O)c2cccs2)C1` (stereo not drawn) it was 20.6 µM [rising, partial curve, poor fit].
As for `c1ccc2c(c1)Cc1cc3ccccc3nc1-2`, under setting [1], the AC50 was 0.708 µM [rising, full curve, poor fit].
On to `Cc1nnc(N2CCC(C(=O)N3CCCCCC3)CC2)c2nn(-c3ccc(Cl)cc3)c(C)c12`, for which, under setting [1], the AC50 was 2.24 µM [falling, partial curve].
For `N#C/C(=C\c1ccc(-c2cccc(Cl)c2)o1)C(=O)Nc1cccc2cccnc12`, the AC50 under setting [1] is 29.1 µM [rising, single point].
The same measure, in the same setting: with `Cc1cccc(NC(=O)c2ccc(COc3ccc(Cl)cc3Cl)o2)n1` the figure was 23.1 µM [falling, single point]; with `CCCN1C2=NS(=O)(=O)CCN2c2ccccc21`, 13 µM [rising, partial curve, poor fit]; with `O=C(Nc1nc(-c2ccccn2)cs1)C1COc2ccccc2O1` (stereo not drawn), 11.6 µM [falling, partial curve, poor fit].
Regarding `O=C(C1CCCN(S(=O)(=O)c2ccc(F)cc2)C1)N(Cc1cccs1)C1CC1` (stereo not drawn), the AC50 under setting [1] was 12.6 µM [falling, partial curve, poor fit].
The same measure, in the same setting: with `CC1CCC(NC(=O)c2ccc3c(c2)OCO3)CC1` (stereo not drawn) the figure was 22.4 µM [falling, partial curve, poor fit]; with `CCOC(=O)Cc1csc(NC(=O)COc2ccc(N(C)S(=O)(=O)c3cccs3)cc2)n1`, 35.5 µM [falling, single point].
In the case of `COc1ccccc1N1CCN(C(=O)CSc2ccccc2)CC1`, under setting [1], the AC50 was 3.26 µM [rising, full curve].
For `CSc1ccc(-c2sc(Nc3cccc4ccccc34)n[n+]2-c2ccccc2)cc1`, the concentration at half-maximal activity (AC50) under setting [1] was 1.58 µM [rising, partial curve, poor fit].
As for `COc1ccc(OC)c(-c2nnc3n2N=C(c2ccc(OC(F)F)c(OCC4CC4)c2)CS3)c1`, the half-maximal activity concentration (AC50) is, setting by setting: under setting [1], 4.11 µM [falling, single point]; under setting [2], 18.4 µM [falling, single point].
Regarding `COc1ccc(NS(=O)(=O)c2cccc(NC(=O)c3ccc(Cl)nc3)c2)cc1`, the half-maximal activity concentration (AC50) under setting [1] was 8.91 µM [falling, partial curve, poor fit].
With `COc1cc(C(C)=O)ccc1OCCCOc1cccc2cccnc12`, under setting [1], the AC50 was 11.2 µM [rising, partial curve].
Take `CCOc1ccc(C(=O)OCC(=O)N2CCCC2)cc1`: the AC50 under setting [1] was 6.31 µM [falling, single point].
As to `CCN(CC)S(=O)(=O)c1ccc(N2CCCC2)c(NC(=O)c2nn(C)c(=O)c3ccccc23)c1`, the AC50 under setting [1] was 0.461 µM [rising, single point].
Consider `C#CC(C)(CC)NC(=O)Cn1nnc(-c2cccc(C(F)(F)F)c2)n1` (stereo not drawn), for which, under setting [1], the AC50 was 12.6 µM [rising, single point].
`COc1ccc(-c2cn[nH]c2-c2ccc(OCc3ccccc3)cc2O)cc1OC`: the AC50 under setting [1] was 15.8 µM [falling, single point].
Consider `CCOc1ccccc1NC=C1C(=O)OC2(CCCCC2)OC1=O`, for which the AC50 under setting [1] is 4.61 µM [falling, single point].
Consider `N#Cc1c(C(F)(F)F)cc(-c2cccc(Cl)c2)[nH]c1=O`, for which, under setting [1], the half-maximal activity concentration (AC50) is 20.6 µM [falling, single point].
